The target in test [1] is TDG-BirA* fusion protein, HA-tagged (pPgk-mTDGa-BioID2-HA), stably expressed in mESC (murine) (UniProt P56581). Nature of the test: proximity labelling; BioID2-MS in mESC stably expressing TDG-BirA*; 60 µM biotin for 48 h; nuclear fraction; approach B: high-salt extraction with Benzonase, streptavidin beads washed with SDS and high-salt buffers; enriched over NLS-BirA* and no-BirA* (nucleolar proteins: over no-BirA* only).

The chains behind the UniProt entries cited, without tags or fusion partners.
UniProt P56581: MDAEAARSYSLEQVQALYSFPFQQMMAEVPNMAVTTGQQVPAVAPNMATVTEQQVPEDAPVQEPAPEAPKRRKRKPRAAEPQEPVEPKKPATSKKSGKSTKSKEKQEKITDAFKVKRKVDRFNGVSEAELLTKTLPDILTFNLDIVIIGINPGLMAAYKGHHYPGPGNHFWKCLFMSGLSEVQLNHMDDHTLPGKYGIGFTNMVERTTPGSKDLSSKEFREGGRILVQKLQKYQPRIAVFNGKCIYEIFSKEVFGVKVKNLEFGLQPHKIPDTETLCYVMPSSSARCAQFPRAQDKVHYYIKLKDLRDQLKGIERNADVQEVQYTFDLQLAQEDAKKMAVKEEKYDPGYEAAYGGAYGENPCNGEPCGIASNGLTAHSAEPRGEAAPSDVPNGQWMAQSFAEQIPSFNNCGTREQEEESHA

Test [2] has the same target. Nature of the test: proximity labelling; BioID2-MS in mESC stably expressing TDG-BirA*; 60 µM biotin for 48 h; nuclear fraction; approach A: lysis and streptavidin purification in denaturing urea buffers; enriched over NLS-BirA* and no-BirA* (nucleolar proteins: over no-BirA* only).

No constants are given. Whether binding was seen depends on the method and setting. In cells and extracts the contact can be indirect. Here binding means that the protein was enriched with, or labelled near, the bait; the list need not be complete.

B1: PSPC1 (protein, UniProt Q8R326 1-523)
chain: MMLRGNLKQVRIEKNPARLRALESAAGESEPVAAAAMALTLAGEQAPPPAPSEEHPDEELGFTIDIKSFLKPGEKTYTQRCRLFVGNLPTDITEEDFKRLFERYGEPSEVFINRDRGFGFIRLESRTLAEIAKAELDGTILKSRPLRIRFATHGAALTVKNLSPVVSNELLEQAFSQFGPVEKAVVVVDDRGRATGKGFVEFAAKPPARKALERCGDGAFLLTTTPRPVIVEPMEQFDDEDGLPEKLMQKTQQYHKEREQPPRFAQPGTFEFEYASRWKALDEMEKQQREQVDRNIREAKEKLEAEMEAARHEHQLMLMRQDLMRRQEELRRLEELRNQELQKRKQIQLRHEEEHRRREEEMIRHREQEELRRQQEGGFKPNYMENREQEMRMGDMGPRGAINMGDAFSPAPAGTQGPPPMMGMNMNNRGTIPGPPMGPGPAMGPEGAANMGTPMIPDNGAVHNDRFPQGPPSQMGSPMGNRTGSETPQAPMSGVGPVSGGPGGFGRGSQGGNFEGPNKRRRY
In the case of B1, the binding result in test [1] and in test [2] was “binds” throughout.

For the origin of these results see PMC12748351, “The TDG protein environment connects active DNA demethylation with chromatin and RNA biology”.
